PubChem BioAssay AID743454 | Peter MacCallum Cancer Centre, 2014
The whole screen tested about 18,000 reagents; shown is a random part of them. 450 of all reagents (2.5%) count as active. 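Single biological run; no consistent viability z cut-off exists, so the class columns, not z-scores, define the calls.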 Unmarked entries are inactive.

Screen: 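Search for knock-downs that restore vorinostat killing in resistant colon cancer cells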 (primary screen)
System: human HCT116-VR colon cancer cells, selected for vorinostat resistance
Reagents: siRNA pool against human genes, 40 nM siRNA pool
Time to read-out: vorinostat for 24 h, read-out about 72 h after transfection
Treatment: vorinostat at 2.5 µM final
Detection: 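Cell viability by CellTiter-Fluor and caspase 3/7 activity by luminescence, each scaled to mock wells per plate, duplicates averaged, then robust z-scored over all plates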
Scale: viability robust z-score: higher = more viable cells than screen typical; caspase robust z-score: higher = more caspase 3/7 activity than screen typical
Call rule: 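a knock-down is a hit when classed RV1 or RV2 for lowered viability, or CA1 or CA2 for caspase activation; those lethal without drug were dropped; hits were retested singly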

MAP3K2
- viability hit class: no change
- caspase hit class: no change
- viability robust z-score: 2.35
- caspase robust z-score: -0.5

EPHB1
- viability hit class: no change
- caspase hit class: no change
- viability robust z-score: 1.01
- caspase robust z-score: 0.44

AP2S1
- viability hit class: no change
- caspase hit class: no change
- viability robust z-score: -2
- caspase robust z-score: -0.05

SAMD7
- viability hit class: no change
- caspase hit class: no change
- viability robust z-score: 1.11
- caspase robust z-score: -0.12

PRND
- viability hit class: no change
- caspase hit class: no change
- viability robust z-score: -1.4
- caspase robust z-score: 0.36

SAXO2
- viability hit class: no change
- caspase hit class: no change
- viability robust z-score: -0.18
- caspase robust z-score: -0.55

HPSE2
- viability hit class: no change
- caspase hit class: no change
- viability robust z-score: -0.68
- caspase robust z-score: -0.68

MGLL
- viability hit class: no change
- caspase hit class: no change
- viability robust z-score: -0.12
- caspase robust z-score: -0.88

OR10R2
- viability hit class: no change
- caspase hit class: no change
- viability robust z-score: 0.18
- caspase robust z-score: -0.68

Next part; the last 2 above are carried over.
MGLL
- viability hit class: no change
- caspase hit class: no change
- viability robust z-score: -0.12
- caspase robust z-score: -0.88

OR10R2
- viability hit class: no change
- caspase hit class: no change
- viability robust z-score: 0.18
- caspase robust z-score: -0.68

CRB2
- viability hit class: no change
- caspase hit class: no change
- viability robust z-score: 1.05
- caspase robust z-score: -0.28

MZT2A
- viability hit class: no change
- caspase hit class: no change
- viability robust z-score: -0.4
- caspase robust z-score: 1.15

TEDDM1
- viability hit class: no change
- caspase hit class: no change
- viability robust z-score: -0.1
- caspase robust z-score: -0.01

A2M
- viability hit class: no change
- caspase hit class: no change
- viability robust z-score: -0.22
- caspase robust z-score: 1.75

KRTAP10-7
- viability hit class: no change
- caspase hit class: no change
- viability robust z-score: -0.71
- caspase robust z-score: -0.82

AKAP4
- viability hit class: no change
- caspase hit class: no change
- viability robust z-score: 0.93
- caspase robust z-score: -0.02

PLCXD3
- viability hit class: no change
- caspase hit class: no change
- viability robust z-score: -0.12
- caspase robust z-score: 1.01

WIPI2
- viability hit class: no change
- caspase hit class: no change
- viability robust z-score: 0.16
- caspase robust z-score: -0.73

ZMYND8
- viability hit class: no change
- caspase hit class: no change
- viability robust z-score: -0.48
- caspase robust z-score: -0.66

CD33
- viability hit class: no change
- caspase hit class: no change
- viability robust z-score: 0.46
- caspase robust z-score: 0.8

DOK7
- viability hit class: no change
- caspase hit class: no change
- viability robust z-score: 0.64
- caspase robust z-score: -0.13

KRTAP8-1
- viability hit class: no change
- caspase hit class: no change
- viability robust z-score: 1.22
- caspase robust z-score: -0.02
